# The shares of active, inactive and inconclusive entries below differ from those in the screen. Potencies beside an inconclusive call are fits to weak or partial responses and may not hold up. Active and inactive are the calls of the source. The calls were made as follows: active = hit-call score of the fitted dose curve at least 0.9, where 1 is the maximum; inconclusive = response in the unintended direction; inactive = score below 0.9.
# Read-out: organic anion transporter (SLCO1B1), SLCO1B1 (gene 10599)
# Assay: CLD_SLCO1B1_48hr: CellzDirect (CLD) Gene Expression Assay for organic anion transporter (SLCO1B1) at 48 hours (AID 2283707)
# Method: CLD_48hr is a cell-based, multiplexed-readout assay that uses hepatocyte, a human liver primary cell, with measurements taken at 48 hours after chemical dosing in a 96-well plate.CLD_SLCO1B1_48hr is one of 16 assay component(s) measured or calculated from the CLD_48hr assay. It is designed to make measurements of mRNA induction, a form of inducible reporter, as detected with chemiluminescence signals by Quantitative Nuclease Protection Assay (qNPA) technology.Data from the assay component CLD_SLCO1B1_48hr was analyzed at the endpoint, CLD_SLCO1B1_48hr, in the positive analysis fitting direction relative to DMSO as the negative control and baseline of activity. Using a type of inducible reporter, gain-of-signal activity can be used to understand changes in the reporter gene as they relate to the gene SLCO1B1. Furthermore, this assay endpoint can be referred to as a primary readout. To generalize the intended target to other relatable targets, this assay endpoint is annotated to the transporter intended target family, where subfamily is organic anion transporter.
# Human hepatocyte cultures were treated daily for two consecutive days with fresh dosing solutions containing appropriate concentrations of the 320 ToxCast chemicals (chemical identities were blinded to CellzDirect and other ToxCast collaborators), vehicle control (0.2% DMSO), and positive control inducers as summarized in Table 1. Due to the large number of treatment groups and chemicals examined, the ToxCast chemicals were divided into two groups (spanning two independent cultures of hepatocytes from separate donor preparations (Hu778: ToxCast plates 1 and 2; Hu776: ToxCast plates 3 and 4). Each preparation of human hepatocyte cultures was treated with respective vehicle control, medium only control, set of six positive controls/reference chemicals for the five hepatic receptor pathways, and a subset of eight of the ToxCast chemicals (indoxacarb, pyrithiobac-sodium, norflurazon, cyhalofop-butyl, methomyl, thiram, acetochlor, and propiconazole). These replicate data, coupled with internal replicates designed within the blinded ToxCast chemical library, provided additional data to evaluate interindividual differences between hepatocyte preparations and their potential impact on chemical profiles.Cell morphology and integrity were evaluated using phase-contrast microscopy as an indicator of hepatocyte cell health (Tyson & Green, 1987). Cultures for each treatment group (i.e., media, vehicle [0.2% DMSO], positive control inducers [multiple concentrations], and the ToxCast chemicals [multiple concentrations]) were observed and cell morphology was assessed relative to vehicle control cultures at each harvest time point (0, 6, 24, or 48 h). […] Images were evaluated at the conclusion of the study to assess changes in cell integrity and account for the effects of chemical exposure on uncharacteristic changes in concentration-dependent gene expression profiles. The results from these determinations of apparent cytotoxicity were annotated (yes/no) alongside the corresponding qNPA data for reference.At the conclusion of each treatment period, hepatocyte cultures (96-well) were washed with 1 volume of HBSS, lysed by addition of 25 ul ArrayPlate lysis buffer (HTG, Tucson, AZ), and 70 ul/well of Denaturation Oil, denatured by incubation at 95C for 10 min, and frozen at approximately -70C until analysis by nuclease protection assay (qNPA) (Roberts et al., 2007). For qNPA analysis, cell lysates were thawed at 50C for approximately 30 min, qNPA probes were added, and samples were incubated at 95C for 10 min to begin the detection process by denaturing the target RNA, dissociating the duplexes and secondary structure hybridization. At the conclusion of the hybridization period, S1 nuclease reagent was added to each sample to digest all nonprotected nucleotides at 50C for 60-90 min. […]
Compound,AC50,outcome
c1ccc2[nH]c(-c3cscn3)nc2c1,inconclusive: 20 µM,
CCCCOC(=O)C(C)Oc1ccc(Oc2ccc(C(F)(F)F)cn2)cc1 (configuration not stated),,inactive
CN(C)C(=O)Nc1ccc(Cl)c(Cl)c1,inconclusive: 10.5 µM,
N#CSCSc1nc2ccccc2s1,inconclusive: 8.63 µM,
COCCO,,inactive
COc1nc(C)nc(NC(=O)NS(=O)(=O)c2ccccc2OCCCl)n1,inconclusive: 0.0791 µM,
CC(C)(c1ccc(O)cc1)c1ccc(O)cc1,,inactive
CCCCOC(=O)[C@@H](C)Oc1ccc(Oc2ccc(C(F)(F)F)cn2)cc1,,inactive
CCCCCOC(=O)COc1cc(N2C(=O)C3=C(CCCC3)C2=O)c(F)cc1Cl,inconclusive: 0.00206 µM,
COC(=O)c1ccccc1C(=O)O,inconclusive: 0.0537 µM,
O=C(O)C1(C(=O)Nc2ccc(Cl)cc2Cl)CC1,inconclusive: 0.00228 µM,
CCCOC(=O)c1ccc(C(=O)OCCC)nc1,,inactive
CC1(C)C(C=C(Cl)Cl)C1C(=O)OCc1cccc(Oc2ccccc2)c1 (configuration not stated),inconclusive: 20 µM,
CSC(=O)c1cccc2nnsc12,,inactive
CCOC(=O)C(C)Oc1ccc(Oc2cnc3cc(Cl)ccc3n2)cc1 (configuration not stated),,inactive
CCOC(=O)COc1cc(-n2ncc(C(F)(F)F)c(C)c2=O)c(F)cc1Cl,inconclusive: 20 µM,
Cc1nn(C)c(Oc2ccccc2)c1C=NOCc1ccc(C(=O)OC(C)(C)C)cc1,inconclusive: 0.00992 µM,

# A portion taken from the entries so far, as a working copy:
Compound,AC50,outcome
CCOC(=O)C(C)Oc1ccc(Oc2cnc3cc(Cl)ccc3n2)cc1 (configuration not stated),,inactive
CCOC(=O)COc1cc(-n2ncc(C(F)(F)F)c(C)c2=O)c(F)cc1Cl,inconclusive: 20 µM,

# Source: PubChem BioAssay (EPA / NIEHS)
